The values below come from article PMC11994402.

The target of this assay is Glutathione peroxidase 4. As to the kind of experiment: co-IP; GBP2 with GPX4; cells and conditions not told in the text (Supplemental Figs. 9A and B).

No constants are given. Whether binding was seen depends on the method and setting. Binding seen in cells or lysates may run through a third protein.

B1: guanylate-binding protein 2 (protein, UniProt P32456 1-591)
chain: MAPEINLPGPMSLIDNTKGQLVVNPEALKILSAITQPVVVVAIVGLYRTGKSYLMNKLAGKKNGFSLGSTVKSHTKGIWMWCVPHPKKPEHTLVLLDTEGLGDIEKGDNENDSWIFALAILLSSTFVYNSMGTINQQAMDQLHYVTELTDRIKANSSPGNNSVDDSADFVSFFPAFVWTLRDFTLELEVDGEPITADDYLELSLKLRKGTDKKSKSFNDPRLCIRKFFPKRKCFVFDWPAPKKYLAHLEQLKEEELNPDFIEQVAEFCSYILSHSNVKTLSGGIPVNGPRLESLVLTYVNAISSGDLPCMENAVLALAQIENSAAVEKAIAHYEQQMGQKVQLPTETLQELLDLHRDSEREAIEVFMKNSFKDVDQMFQRKLGAQLEARRDDFCKQNSKASSDCCMALLQDIFGPLEEDVKQGTFSKPGGYRLFTQKLQELKNKYYQVPRKGIQAKEVLKKYLESKEDVADALLQTDQSLSEKEKAIEVERIKAESAEAAKKMLEEIQKKNEEMMEQKEKSYQEHVKQLTEKMERDRAQLMAEQEKTLALKLQEQERLLKEGFENESKRLQKDIWDIQMRSKSLEPICNIL
For the molecule B1, the binding entry is “no binding”.
